In publication PMC7424068, “Design, Synthesis, and Biological Evaluation of Novel Thiazolidinone-Containing Quinoxaline-1,4-di-N-oxides as Antimycobacterial and Antifungal Agents” (Frontiers in Chemistry, 2020):

system: TB-infected macrophage model; test: Macrophage assay (TB-infected macrophage model); type: cell-based, Mycobacterium tuberculosis; settings: macrophage EC90 over MIC; EC90 > 16 x MIC considered inactive

| SMILES | EC90/MIC |
| --- | --- |
| O=C1CSC(c2c[n+]([O-])c3ccc(F)cc3[n+]2[O-])N1c1ccc(F)cc1 (stereo not shown) [2t, 7-F-2-(3′-P-fluorophenyl-4′(5H)-thiazolidinone)-quinoxaline-1,4-di-N-oxide] | 1.06 |
| O=C1CSC(c2c[n+]([O-])c3ccc(F)cc3[n+]2[O-])N1c1ccc(Cl)cc1 (stereo not shown) [2u, 7-F-2-(3′-P-chlorophenyl-4′(5H)-thiazolidinone)-quinoxaline-1,4-di-N-oxide] | 0.54 |
| O=C1CSC(c2c[n+]([O-])c3ccc(Cl)cc3[n+]2[O-])N1c1ccc(F)cc1 (stereo not shown) [2y, 7-Cl-2-(3′-P-fluorophenyl-4′(5H)-thiazolidinone)-quinoxaline-1,4-di-N-oxide] | 0.85 |
| O=C1CSC(c2c[n+]([O-])c3ccc(Cl)cc3[n+]2[O-])N1c1ccc(Cl)cc1 (stereo not shown) [2z, 7-Cl-2-(3′-P-chlorophenyl-4′(5H)-thiazolidinone)-quinoxaline-1,4-di-N-oxide] | 0.59 |
